Data source: PubChem BioAssay AID743454 (Peter MacCallum Cancer Centre, 2014)
The whole screen tested about 18,000 reagents; shown is an unselected part. Over the whole deposit, 450 (2.5%) got an active call. 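Single biological run; no consistent viability z cut-off exists, so the class columns, not z-scores, define the calls.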 Unmarked entries are inactive.

Test: 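Search for knock-downs that restore vorinostat killing in resistant colon cancer cells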 (primary screen)
Cell system: human HCT116-VR colon cancer cells, selected for vorinostat resistance
Knock-down reagent: siRNA pool against human genes, 40 nM siRNA pool
Time to read-out: vorinostat for 24 h, read-out about 72 h after transfection
Treatment: vorinostat at 2.5 µM final
Detection: 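Two measures, CellTiter-Fluor viability and luminescent caspase 3/7 activity, each as fold change against same-plate mock wells, mean of duplicates, then screen-wide robust z-score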
Reading the numbers: viability robust z-score: higher = more viable cells than screen typical; caspase robust z-score: higher = more caspase 3/7 activity than screen typical
Call rule: 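a knock-down is a hit when classed RV1 or RV2 for lowered viability, or CA1 or CA2 for caspase activation; those lethal without drug were dropped; hits were retested singly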

{"gene knocked down":"OPN1LW","PubChem SID":"SID152146884","viability hit class":"no change","caspase hit class":"no change","viability robust z-score":0.46,"caspase robust z-score":-0.2}
{"gene knocked down":"MICB","PubChem SID":"SID152149676","viability hit class":"no change","caspase hit class":"no change","viability robust z-score":-0.34,"caspase robust z-score":2.4}
{"gene knocked down":"MCCC1","PubChem SID":"SID152150367","viability hit class":"no change","caspase hit class":"no change","viability robust z-score":-0.4,"caspase robust z-score":-0.86}
{"gene knocked down":"CSKMT","PubChem SID":"SID135625567","viability hit class":"no change","caspase hit class":"no change","viability robust z-score":0.32,"caspase robust z-score":-0.63}
{"gene knocked down":"FHOD3","PubChem SID":"SID135624368","viability hit class":"no change","caspase hit class":"no change","viability robust z-score":-1.1,"caspase robust z-score":1.73}
{"gene knocked down":"USP16","PubChem SID":"SID152147818","viability hit class":"no change","caspase hit class":"no change","viability robust z-score":-0.7,"caspase robust z-score":0.31}
{"gene knocked down":"PKN1","PubChem SID":"SID56478783","viability hit class":"no change","caspase hit class":"no change","viability robust z-score":0.52,"caspase robust z-score":0}
{"gene knocked down":"OR5H1","PubChem SID":"SID134329914","viability hit class":"no change","caspase hit class":"no change","viability robust z-score":0.92,"caspase robust z-score":-0.56}
{"gene knocked down":"BABAM1","PubChem SID":"SID135624038","viability hit class":"no change","caspase hit class":"no change","viability robust z-score":1.34,"caspase robust z-score":0.69}
{"gene knocked down":"PEX13","PubChem SID":"SID152155590","viability hit class":"no change","caspase hit class":"no change","viability robust z-score":-0.14,"caspase robust z-score":2.3}
{"gene knocked down":"SCYL1","PubChem SID":"SID152146872","viability hit class":"no change","caspase hit class":"no change","viability robust z-score":0.45,"caspase robust z-score":-1}
{"gene knocked down":"ALG10","PubChem SID":"SID152149896","viability hit class":"no change","caspase hit class":"no change","viability robust z-score":0,"caspase robust z-score":-0.34}
{"gene knocked down":"GGT6","PubChem SID":"SID134320647","viability hit class":"no change","caspase hit class":"no change","viability robust z-score":-0.42,"caspase robust z-score":0.12}
{"gene knocked down":"ERC1","PubChem SID":"SID134315319","viability hit class":"no change","caspase hit class":"no change","viability robust z-score":-0.87,"caspase robust z-score":0.32}
{"gene knocked down":"KCTD16","PubChem SID":"SID152147632","viability hit class":"no change","caspase hit class":"no change","viability robust z-score":0.27,"caspase robust z-score":-0.48}
{"gene knocked down":"BPIFB3","PubChem SID":"SID134313954","viability hit class":"no change","caspase hit class":"no change","viability robust z-score":0.49,"caspase robust z-score":0.05}
{"gene knocked down":"ACKR2","PubChem SID":"SID152154944","viability hit class":"no change","caspase hit class":"no change","viability robust z-score":1.57,"caspase robust z-score":0.84}
{"gene knocked down":"DHRS7","PubChem SID":"SID134314304","viability hit class":"no change","caspase hit class":"no change","viability robust z-score":-0.49,"caspase robust z-score":-0.32}
{"gene knocked down":"ASB18","PubChem SID":"SID135625157","viability hit class":"no change","caspase hit class":"no change","viability robust z-score":1.18,"caspase robust z-score":-0.73}
{"gene knocked down":"PRR36","PubChem SID":"SID152147439","viability hit class":"no change","caspase hit class":"no change","viability robust z-score":0.24,"caspase robust z-score":-0.27}
{"gene knocked down":"TRMT10A","PubChem SID":"SID152152839","viability hit class":"no change","caspase hit class":"no change","viability robust z-score":-1.02,"caspase robust z-score":2.64}
{"gene knocked down":"EIF2D","PubChem SID":"SID152151178","viability hit class":"no change","caspase hit class":"no change","viability robust z-score":0.9,"caspase robust z-score":-0.2}
{"gene knocked down":"METTL3","PubChem SID":"SID152147903","viability hit class":"no change","caspase hit class":"no change","viability robust z-score":1.78,"caspase robust z-score":0.76}
{"gene knocked down":"ACADSB","PubChem SID":"SID152148285","viability hit class":"no change","caspase hit class":"no change","viability robust z-score":1.77,"caspase robust z-score":-0.49}
{"gene knocked down":"ATP8B2","PubChem SID":"SID135624295","viability hit class":"no change","caspase hit class":"no change","viability robust z-score":-1.95,"caspase robust z-score":2.24}
{"gene knocked down":"PRKD3","PubChem SID":"SID56478959","viability hit class":"no change","caspase hit class":"no change","viability robust z-score":-0.96,"caspase robust z-score":1.38}
{"gene knocked down":"MB21D2","PubChem SID":"SID134322252","viability hit class":"no change","caspase hit class":"no change","viability robust z-score":0.56,"caspase robust z-score":-0.64}
